One molecule from article doi:10.1101/2024.12.16.628697 can be followed below.

Protein sequences, listed by entry. Tags and fused reporters are not part of them. Residues count along the entry.
UniProt Q8TAF3, residues 9-677: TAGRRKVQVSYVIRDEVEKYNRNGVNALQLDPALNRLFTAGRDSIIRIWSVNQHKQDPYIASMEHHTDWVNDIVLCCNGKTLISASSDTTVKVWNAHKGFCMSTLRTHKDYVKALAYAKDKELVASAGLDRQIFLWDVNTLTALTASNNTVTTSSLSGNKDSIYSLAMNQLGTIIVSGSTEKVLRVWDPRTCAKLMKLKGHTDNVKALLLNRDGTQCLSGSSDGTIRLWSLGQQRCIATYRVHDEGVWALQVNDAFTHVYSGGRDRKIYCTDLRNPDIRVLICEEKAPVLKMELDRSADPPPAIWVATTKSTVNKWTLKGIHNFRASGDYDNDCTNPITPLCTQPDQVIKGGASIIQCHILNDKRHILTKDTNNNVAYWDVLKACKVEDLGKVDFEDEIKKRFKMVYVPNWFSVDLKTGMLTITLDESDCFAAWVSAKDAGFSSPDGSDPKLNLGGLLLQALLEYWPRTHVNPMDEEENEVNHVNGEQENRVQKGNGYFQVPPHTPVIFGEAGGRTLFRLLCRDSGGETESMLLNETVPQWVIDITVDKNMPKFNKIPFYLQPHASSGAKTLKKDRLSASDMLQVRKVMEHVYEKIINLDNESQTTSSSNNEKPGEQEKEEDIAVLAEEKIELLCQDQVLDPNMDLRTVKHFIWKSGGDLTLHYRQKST

The test deals with UAF1 (res. 9-677) (UniProt Q8TAF3). Nature of the test: co-purification.

Results are given in words; binding and its absence hold for the method and conditions named. Some entries that bind do so weakly or less than the wild type.

B1: USP1 (res. 21-785, G670A + G671A) (enzyme, UniProt O94782 21-785)
chain: NRLSLKFFQKKETKRALDFTDSQENEEKASEYRASEIDQVVPAAQSSPINCEKRENLLPFVGLNNLGNTCYLNSILQVLYFCPGFKSGVKHLFNIISRKKEALKDEANQKDKGNCKEDSLASYELICSLQSLIISVEQLQASFLLNPEKYTDELATQPRRLLNTLRELNPMYEGYLQHDAQEVLQCILGNIQETCQLLKKEEVKNVAELPTKVEEIPHPKEEMNGINSIEMDSMRHSEDFKEKLPKGNGKRKSDTEFGNMKKKVKLSKEHQSLEENQRQTRSKRKATSDTLESPPKIIPKYISENESPRPSQKKSRVKINWLKSATKQPSILSKFCSLGKITTNQGVKGQSKENECDPEEDLGKCESDNTTNGCGLESPGNTVTPVNVNEVKPINKGEEQIGFELVEKLFQGQLVLRTRCLECESLTERREDFQDISVPVQEDELSKVEESSEISPEPKTEMKTLRWAISQFASVERIVGEDKYFCENCHHYTEAERSLLFDKMPEVITIHLKCFAASGLEFDCYGGGLSKINTPLLTPLKLSLEEWSTKPTNDSYGLFAVVMHSGITISSGHYTASVKVTDLNSLELDKGNFVVDQMCEIGKPEPLNEEEARGVVENYNDEEVSIRVGGNTQPSKVLNKKNVEAIGLLAAQKSKADYELYNKASNPDKVASTAFAENRNSETSDTTGTHESDRNKESSDQTGINISGFENKISYVVQSLKEYEGKWLLFDDSEVKVTEEKDFLNSLSPSTSPTSTPYLLFYKKL
As to B1, the binding result was “binds”.
